Data taken from PubChem BioAssay AID248 (DTP/NCI, 2004).
The list shows only some results of the screen, not a fair sample: it is rich in T/C values a quarter to a half above the control, in often repeated tests (any T/C) and in doses without a T/C. Further doses and runs are listed elsewhere. T/C gives the treated animals as a percentage of the vehicle group. Some doses have a count of surviving animals in place of a T/C: the source files T/C as zero there, which appears to mark a toxic dose or a test without result, not a measured value. Some survivor counts are full or nearly so, which does not show that the dose was tolerated: the source hardly ever lists a survival T/C far under the control, and the zero likely stands for such cases as well. Survivors were counted at the toxicity check, usually on the fifth day, unless a day is given; later deaths do not show. Schedule codes are those of the source, read here as Q, the interval in days (D) or hours (H), X, the number of doses. Some entries hold several experiments; their values stand side by side, smallest first. Some schedule codes hold Z or #, which are not explained here. Where survival is the endpoint, the PubChem record calls one and a half times the control and up active, and a quarter to a half above the control has no call in these data; cut-offs in other NCI protocols can differ.

Test system: L1210 leukemia ip in BDF1 mice, survival T/C
Experiment: NCI In Vivo Anticancer Drug Screen. Data for tumor model L1210 Leukemia (intraperitoneal) in B6D2F1 (BDF1) mice
Settings: T/C endpoint: mean survival time, higher T/C = longer survival
[1] = dose: 12.5 mg/kg/injection, schedule: Q01DX009 (ip), vehicle: saline
[2] = dose: 25.0 mg/kg/injection, schedule: Q01DX009 (ip), vehicle: saline
[3] = dose: 50.0 mg/kg/injection, schedule: Q01DX009 (ip), vehicle: saline
[4] = dose: 100.0 mg/kg/injection, schedule: Q01DX009 (ip), vehicle: saline
[5] = dose: 200.0 mg/kg/injection, schedule: Q01DX009 (ip), vehicle: saline
[6] = dose: 400.0 mg/kg/injection, schedule: Q01DX009 (ip), vehicle: saline
[7] = dose: 200.0 mg/kg/injection, schedule: Q01DX001 (ip), vehicle: saline
[8] = dose: 25.0 mg/kg/injection, schedule: Q04DX003 (ip), vehicle: saline
[9] = dose: 50.0 mg/kg/injection, schedule: Q04DX003 (ip), vehicle: saline
[10] = dose: 100.0 mg/kg/injection, schedule: Q04DX003 (ip), vehicle: saline
[11] = dose: 25.0 mg/kg/injection, schedule: Q01DX001 (ip), vehicle: saline
[12] = dose: 100.0 mg/kg/injection, schedule: Q04DX003 (ip), vehicle: Klucel (hydroxypropylcellulose) (HPC)
[13] = dose: 200.0 mg/kg/injection, schedule: Q04DX003 (ip), vehicle: Klucel (hydroxypropylcellulose) (HPC)
[14] = dose: 400.0 mg/kg/injection, schedule: Q04DX003 (ip), vehicle: Klucel (hydroxypropylcellulose) (HPC)

O=C(O)CCN(Cl)Cl
survivor count [1]: 1 of 6
survivor count [2]: 0 of 6
survivor count [3]: 0 of 6
survivor count [4]: 0 of 6
survivor count [5]: 0 of 6
survivor count [6]: 0 of 6

COc1c(O)ccc2c1-c1c3c(cc4c1C(C2)NCC4)OCO3 (stereo not given)
survivor count [7]: 0 of 6
survivor count (dose: 400.0 mg/kg/injection, schedule: Q01DX001 (ip), vehicle: saline): 1 of 6

ClCCCN1CCCCC1CCl (stereo not given)
T/C (dose: 6.25 mg/kg/injection, schedule: Q01DX009 (ip), vehicle: saline): 136 % of control
T/C [1]: 136 and 148 % of control
T/C (dose: 12.5 mg/kg/injection, schedule: Q04DX003 (ip), vehicle: saline): 125 % of control
survivor count [2]: 5 of 6 and 6 of 6
T/C [8]: 147 % of control
survivor count [3]: 0 of 6
survivor count [9]: 4 of 6 and 6 of 6
survivor count [10]: 3 of 6
survivor count (dose: 200.0 mg/kg/injection, schedule: Q04DX003 (ip), vehicle: saline): 0 of 6
survivor count (dose: 400.0 mg/kg/injection, schedule: Q04DX003 (ip), vehicle: saline): 0 of 6

O=C(CBr)c1ccc(S(=O)(=O)c2ccccc2)cc1
survivor count (dose: 40.0 mg/kg/injection, schedule: Q01DX001 (ip), vehicle: carboxymethylcellulose (CMC)): 3 of 4
survivor count (dose: 50.0 mg/kg/injection, schedule: Q01DX001 (ip), vehicle: carboxymethylcellulose (CMC)): 0 of 4
survivor count (dose: 80.0 mg/kg/injection, schedule: Q01DX001 (ip), vehicle: carboxymethylcellulose (CMC)): 0 of 4
survivor count (dose: 100.0 mg/kg/injection, schedule: Q01DX001 (ip), vehicle: carboxymethylcellulose (CMC)): 0 of 4
survivor count (dose: 200.0 mg/kg/injection, schedule: Q01DX001 (ip), vehicle: carboxymethylcellulose (CMC)): 0 of 4
survivor count (dose: 400.0 mg/kg/injection, schedule: Q01DX001 (ip), vehicle: carboxymethylcellulose (CMC)): 0 of 4

COc1cc2c(cc1OC)C1C(=CCC3c4cc(OC)c(OC)cc4CC[N+]31C)C=C2 (stereo not given)
survivor count (dose: 100.0 mg/kg/injection, schedule: Q04DX003 (ip), vehicle: saline with Tween-80): 1 of 6
survivor count (dose: 200.0 mg/kg/injection, schedule: Q04DX003 (ip), vehicle: saline with Tween-80): 0 of 6
survivor count (dose: 400.0 mg/kg/injection, schedule: Q04DX003 (ip), vehicle: saline with Tween-80): 0 of 6

O=C1C=C(C2OC(CO)C(O)C2O)C(=O)N1 (stereo not given)
T/C (dose: 12.0 mg/kg/injection, schedule: Q01DX015 (ip), vehicle: saline): 127 % of control
T/C (dose: 12.0 mg/kg/injection, schedule: Q01DX Z (ip), vehicle: saline): 128 % of control
T/C (dose: 15.0 mg/kg/injection, schedule: Q01DX Z (ip), vehicle: saline): 128 % of control
T/C [11]: 111 % of control
survivor count [11]: 0 of 6, 1 of 6, 3 of 6
survivor count (dose: 25.0 mg/kg/injection, schedule: Q01DX Z (ip), vehicle: saline): 0 of 6
survivor count (dose: 35.0 mg/kg/injection, schedule: Q01DX001 (ip), vehicle: saline): 0 of 6
survivor count (dose: 35.0 mg/kg/injection, schedule: Q01DX Z (ip), vehicle: saline): 0 of 6
survivor count (dose: 50.0 mg/kg/injection, schedule: Q01DX001 (ip), vehicle: saline): 0 of 6
survivor count (dose: 55.0 mg/kg/injection, schedule: Q01DX001 (ip), vehicle: saline): 0 of 6
survivor count (dose: 55.0 mg/kg/injection, schedule: Q01DX Z (ip), vehicle: saline): 0 of 6
survivor count (dose: 80.0 mg/kg/injection, schedule: Q01DX001 (ip), vehicle: saline): 0 of 6
survivor count (dose: 100.0 mg/kg/injection, schedule: Q01DX001 (ip), vehicle: saline): 1 of 6
survivor count [7]: 0 of 6

Cc1ccc(NCC(O)CN2CCOCC2)cc1 (stereo not given)
survivor count [8]: 6 of 6
survivor count [9]: 4 of 6
survivor count [10]: 0 of 6
survivor count (dose: 200.0 mg/kg/injection, schedule: Q01DX001 (ip), vehicle: other): 2 of 6
survivor count (dose: 400.0 mg/kg/injection, schedule: Q01DX001 (ip), vehicle: other): 0 of 6

CS(=O)(=O)OCCN(CCOS(C)(=O)=O)c1ccc(C=Nc2cccc(C(=O)O)c2)cc1
T/C (dose: 10.0 mg/kg/injection, schedule: Q04DX003 (ip), vehicle: Klucel (hydroxypropylcellulose) (HPC)): 129 % of control
T/C (dose: 20.0 mg/kg/injection, schedule: Q04DX003 (ip), vehicle: Klucel (hydroxypropylcellulose) (HPC)): 145 % of control
T/C (dose: 40.0 mg/kg/injection, schedule: Q04DX003 (ip), vehicle: Klucel (hydroxypropylcellulose) (HPC)): 131 % of control
survivor count [12]: 5 of 6
survivor count [13]: 2 of 6
survivor count [14]: 0 of 6

Cc1cccnc1N
survivor count (dose: 400.0 mg/kg/injection, schedule: Q04DX002 (ip), vehicle: saline with Tween-80): 0 of 3

CCC(=O)NC1(C(=O)O)CCCc2ccccc21 (stereo not given)
survivor count [14]: 0 of 6

C/C(=N/NC(N)=S)c1ccc(F)cc1
survivor count (dose: 37.5 mg/kg/injection, schedule: Q01DX009 (ip), vehicle: Klucel (hydroxypropylcellulose) (HPC)): 0 of 6
survivor count (dose: 75.0 mg/kg/injection, schedule: Q01DX009 (ip), vehicle: Klucel (hydroxypropylcellulose) (HPC)): 0 of 6
survivor count (dose: 150.0 mg/kg/injection, schedule: Q01DX009 (ip), vehicle: Klucel (hydroxypropylcellulose) (HPC)): 0 of 6
survivor count (dose: 300.0 mg/kg/injection, schedule: Q01DX009 (ip), vehicle: Klucel (hydroxypropylcellulose) (HPC)): 0 of 6

CC1CN=C(c2cccc(NC(=O)NCCCCNC(=O)Nc3cccc(C4=NCC(C)N4)c3)c2)N1 (stereo not given)
survivor count (dose: 13.0 mg/kg/injection, schedule: Q01DX Z (ip), vehicle: carboxymethylcellulose (CMC)): 6 of 6
survivor count (dose: 26.0 mg/kg/injection, schedule: Q01DX Z (ip), vehicle: carboxymethylcellulose (CMC)): 6 of 6
survivor count (dose: 52.0 mg/kg/injection, schedule: Q01DX Z (ip), vehicle: carboxymethylcellulose (CMC)): 0 of 6

Cc1ccc(C(=O)CC(Sc2ccccc2N)c2cccc([N+](=O)[O-])c2)cc1 (stereo not given)
survivor count (dose: 200.0 mg/kg/injection, schedule: Q04DX002 (ip), vehicle: Klucel (hydroxypropylcellulose) (HPC)): 3 of 3

[CH3][Hg][O]C(C)=O
survivor count (dose: 12.0 mg/kg/injection, schedule: Q01DX009 (ip), vehicle: Klucel (hydroxypropylcellulose) (HPC)): 5 of 6
survivor count (dose: 25.0 mg/kg/injection, schedule: Q04DX003 (ip), vehicle: Klucel (hydroxypropylcellulose) (HPC)): 5 of 6
survivor count (dose: 50.0 mg/kg/injection, schedule: Q04DX003 (ip), vehicle: Klucel (hydroxypropylcellulose) (HPC)): 0 of 6
survivor count [12]: 0 of 6
survivor count [13]: 0 of 6
survivor count [14]: 0 of 6

Cc1ccc(C(=O)C(C)(C)C)c(C)c1
survivor count [4]: 6 of 6
survivor count [5]: 6 of 6
survivor count [6]: 5 of 6

Cc1ccc2c(c1)C1CCC3(CC1OC2(C)C)OC(C)(C)c1cc(C)ccc13 (stereo not given)
survivor count (dose: 400.0 mg/kg/injection, schedule: Q01DX009 (ip), vehicle: Klucel (hydroxypropylcellulose) (HPC)): 6 of 6

CC(=O)Nc1ccc(SSSc2ccc(NC(C)=O)cc2)cc1
survivor count (dose: 50.0 mg/kg/injection, schedule: Q01DX009 (ip), vehicle: water): 6 of 6
survivor count (dose: 100.0 mg/kg/injection, schedule: Q01DX009 (ip), vehicle: water): 5 of 6
survivor count (dose: 400.0 mg/kg/injection, schedule: Q01DX009 (ip), vehicle: water): 4 of 6
